According to PMC12040169 (PLOS Biology, 2025):
The other results are listed elsewhere or left out.

system: T1, CTL2-GFP (C. trachomatis L2/434/Bu, GFP-expressing); parameters: species or system HeLa; Intracellular C. trachomatis growth in HeLa cells, bulk GFP fluorescence relative to DMSO; settings: bulk GFP, single well; 28.5 h, 10 µM; inhibitor
T1 construct: L2/434/Bu, GFP-expressing

Compound | % of control remaining
OC1(Cn2cnc3ccccc32)CCN(Cc2cccc(F)c2)CC1 [CBK284663] | 162.864%
CCCC(=O)Nc1ccc(-c2csc(NC(=O)C3CCCO3)n2)cc1 (stereo not shown) [CBK305854] | 95.2775%
Cc1ccc(S(=O)(=O)NCC(c2ccccc2)N2CCN(CCC#N)CC2)cc1 (stereo not shown) [CBK262865] | 131.342%
CC1CC(C)CN(CCCNS(=O)(=O)c2ccc3c(c2)oc(=O)n3C)C1 (stereo not shown) [CBK268695] | 131.909%
CC(c1ccc(F)c(F)c1)N(C)C(=O)Cn1cnnc1[S+](C)[O-] (stereo not shown) [CBK305311] | 144.302%
c1ccc(CN2CC[C@H](Nc3nccnc3-c3cccnc3)C2)cc1 [CBK036978] | 169.753%
CCOc1ccccc1N(CC(=O)O)S(=O)(=O)c1ccc(Cl)cc1 [CBK287144] | 92.3946%
Cc1cccn2cc(C(=O)N(C)CCn3ccnc3C)nc12 [CBK281735] | 143.937%
S=C(NCc1ccc(Cl)cc1)Nc1ccncc1 [CBK016651] | 112.451%
Cc1cc2ncn(CC(=O)Nc3c(C)noc3C)c2cc1C [CBK200222] | 110.823%
CN(Cc1ccc(CN2CCOC(c3ccccc3)C2)o1)S(C)(=O)=O (stereo not shown) [CBK306808] | 137.086%
CCN(C(=O)c1cc2ccc(N(C)C)cc2[nH]1)C1CCN(C)CC1 [CBK281867] | 93.0421%
O=S(=O)(NCCOCc1ccccc1)c1ccc2c(c1)Cc1ccccc1-2 [CBK266032] | 124.335%
C=CCNC(=O)CCc1nc(-c2cccc(OC)c2)no1 [CBK268981] | 128.654%
CCOC(=O)c1c(NC(=O)CSc2nnc3ccccn23)sc2c1CCC(C)C2 (stereo not shown) [CBK265668] | 100%
Cc1ccc(C)c(Nc2nc3nonc3nc2N2CCOCC2)c1 [CBK262491] | 105.433%
CCNC(=O)c1ccc(-n2cccn2)c(C#Cc2ccccn2)c1 [CBK283125] | 102.253%
COc1ccc2ncc3c(-c4ccccc4)n[nH]c3c2c1 [CBK288052] | 139.079%
Nc1ccc2ccc(-c3ccccc3)nc2n1 [CBK061865] | 125.713%
CN1CCN(c2ccc(NC(=S)NC(=O)c3cc(Br)ccc3Cl)cc2)CC1 [CBK266254C] | 152.335%

Compound | % of control remaining
CC1(C)CC(N(Cc2c[nH]cn2)Cc2ccccc2F)CC(C)(C)N1 [CBK282579] | 107.112%
CC(=O)Nc1ccc(Oc2cc(C)nc(C3CCCNC3)c2)cc1 (stereo not shown) [CBK283443] | 126.176%
COc1ccc2nc(-c3ccc(F)c(NC(=O)c4ccccc4)c3)cn2n1 [CBK287827] | 115.929%
COc1ccc(OC)c(-n2c(C)cn3c4c(=O)[nH]c(=O)n(C)c4nc23)c1 [CBK141314] | 70.8983%
O=C(Cc1ccccn1)N1CCc2ccccc2C1 [CBK200334] | 115.512%
Cc1ccccc1OCC(O)CNC(=O)c1ccccc1C(=O)O (stereo not shown) [CBK264824] | 138.106%
CNC(=O)NC(=O)C1CCN(CCc2ccccc2)CC1 [CBK034956] | 107.696%
O=C(Nc1cccc2ccccc12)C1CCCN1S(=O)(=O)c1ccc(Cl)cc1 (stereo not shown) [CBK138930] | 129.918%
Cc1nnc(SCc2cc(=O)[nH]c(N3CCN(c4ccccc4F)CC3)n2)s1 [CBK270017] | 122.567%
O=C1Cc2ccccc2C2(CCN(C(=O)Nc3c(F)cccc3F)CC2)N1 [CBK047296] | 100%
Cc1nc[nH]c1CN(CCCn1ccnc1)Cc1ccccc1Cl [CBK282473] | 147.176%
COc1ccccc1-c1nccnc1OCc1ccccc1 [CBK106817] | 72.7595%
Cc1nc(CC(=O)NC2CCCN(c3ccn(C)n3)C2=O)c(C)s1 (stereo not shown) [CBK304422] | 132.001%
Cc1cc2ncn(CC(=O)N3CCc4ccccc43)c2cc1C [CBK200270] | 85.4647%
CC1CCN(S(=O)(=O)c2cccc(C(=O)NNC(=O)c3cccc([N+](=O)[O-])c3)c2)CC1 [CBK266774] | 138.022%
Cc1nc2ccc(C(=O)c3ccccc3O)cn2c(=O)c1CCC(=O)O [CBK295618] | 125.571%
Cn1ccnc1C1(O)CC2CCC(C1)N2C(=O)Nc1ccc(F)cc1 (stereo not shown) [CBK284051] | 137.309%
CNC(=O)C1(Cc2ccccc2-c2cccs2)CCN(C(=O)Cc2cccc(C)c2)CC1 [CBK285686] | 112.054%
CC(C)C(NS(=O)(=O)c1ccc2ccccc2c1)C(=O)O (stereo not shown) [CBK286919] | 117.346%
Cn1ccc(C2CCCCCN2S(=O)(=O)c2ccc(F)cc2)n1 (stereo not shown) [CBK284671] | 112.376%

In another format: entries from further up.
Compound	% of control remaining
OC1(Cn2cnc3ccccc32)CCN(Cc2cccc(F)c2)CC1 [CBK284663]	162.864%
CCN(C(=O)c1cc2ccc(N(C)C)cc2[nH]1)C1CCN(C)CC1 [CBK281867]	93.0421%
